Results are given in words; binding and its absence hold for the method and conditions named.
Target: latent human PAI-1 (human) (UniProt P05121)
Assay: SEC; excess of MEDI-579 incubated with the latent PAI-1 material and run on a size exclusion column; fractions analysed by SDS gel densitometry; both purified

Chains of the proteins cited; added tags and fusions are not shown. Residues count along the entry.
UniProt P05121, residues 24-402: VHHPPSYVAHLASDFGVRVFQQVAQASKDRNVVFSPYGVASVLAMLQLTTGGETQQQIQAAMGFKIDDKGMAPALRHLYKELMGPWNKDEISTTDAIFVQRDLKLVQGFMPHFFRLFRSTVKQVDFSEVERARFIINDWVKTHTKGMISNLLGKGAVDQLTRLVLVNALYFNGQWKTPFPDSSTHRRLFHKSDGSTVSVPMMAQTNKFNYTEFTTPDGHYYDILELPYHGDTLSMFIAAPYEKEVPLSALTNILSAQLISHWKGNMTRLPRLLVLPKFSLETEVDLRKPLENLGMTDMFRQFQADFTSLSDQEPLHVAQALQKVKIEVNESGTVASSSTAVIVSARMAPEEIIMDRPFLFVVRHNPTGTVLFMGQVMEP

With “latent human PAI-1 (from UniProt P05121 24-402) (other; other documents disagree on this pair)” the binding was “no binding”.

From article PMC6367345 (Scientific Reports, 2019)
